Consider 30 substances from PMC4559404.

Amino acid sequences for entries named in this document (tags omitted). A change or cut given only in a name is not applied to a line headed by its entry.
UniProt A4IA34: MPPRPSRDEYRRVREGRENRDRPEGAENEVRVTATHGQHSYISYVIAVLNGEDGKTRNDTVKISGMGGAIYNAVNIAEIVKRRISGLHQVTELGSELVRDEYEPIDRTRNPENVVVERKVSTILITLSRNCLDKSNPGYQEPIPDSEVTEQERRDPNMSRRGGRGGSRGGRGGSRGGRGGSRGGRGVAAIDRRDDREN
UniProt A4I011: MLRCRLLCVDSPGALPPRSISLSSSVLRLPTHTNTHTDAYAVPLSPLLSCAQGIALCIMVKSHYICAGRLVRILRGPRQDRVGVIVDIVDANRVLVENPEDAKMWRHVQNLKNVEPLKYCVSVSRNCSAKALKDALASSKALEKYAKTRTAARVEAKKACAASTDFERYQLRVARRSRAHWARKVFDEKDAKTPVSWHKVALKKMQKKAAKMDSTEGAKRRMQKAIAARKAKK
UniProt A4HWJ3: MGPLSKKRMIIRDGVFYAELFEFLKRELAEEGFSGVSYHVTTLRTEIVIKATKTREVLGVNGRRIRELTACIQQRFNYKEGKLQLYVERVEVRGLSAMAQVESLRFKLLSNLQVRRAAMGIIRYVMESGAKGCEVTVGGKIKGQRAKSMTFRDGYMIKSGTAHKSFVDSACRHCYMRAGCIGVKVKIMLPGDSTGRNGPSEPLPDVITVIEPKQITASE
UniProt A4IAU0: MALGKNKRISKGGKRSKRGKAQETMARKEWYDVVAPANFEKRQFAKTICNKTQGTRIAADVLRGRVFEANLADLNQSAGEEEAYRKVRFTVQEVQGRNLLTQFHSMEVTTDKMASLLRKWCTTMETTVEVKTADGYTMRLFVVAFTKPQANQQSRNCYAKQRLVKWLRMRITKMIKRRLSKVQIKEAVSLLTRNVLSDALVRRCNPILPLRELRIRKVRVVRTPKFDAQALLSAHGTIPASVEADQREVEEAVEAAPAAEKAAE
UniProt A0A381MCG8: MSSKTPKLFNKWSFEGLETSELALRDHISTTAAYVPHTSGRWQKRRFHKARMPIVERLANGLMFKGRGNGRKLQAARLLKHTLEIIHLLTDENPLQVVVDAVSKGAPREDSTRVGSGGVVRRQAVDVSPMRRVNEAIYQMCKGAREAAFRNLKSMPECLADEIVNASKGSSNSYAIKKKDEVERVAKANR
UniProt A4HZI4: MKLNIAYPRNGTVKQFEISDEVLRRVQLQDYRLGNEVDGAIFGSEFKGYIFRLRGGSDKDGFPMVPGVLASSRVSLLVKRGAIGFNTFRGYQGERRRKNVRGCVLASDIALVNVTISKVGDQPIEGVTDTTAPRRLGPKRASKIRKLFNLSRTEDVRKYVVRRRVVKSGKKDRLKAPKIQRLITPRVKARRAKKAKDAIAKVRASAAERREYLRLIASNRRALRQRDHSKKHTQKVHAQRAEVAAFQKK
UniProt A4I3H3: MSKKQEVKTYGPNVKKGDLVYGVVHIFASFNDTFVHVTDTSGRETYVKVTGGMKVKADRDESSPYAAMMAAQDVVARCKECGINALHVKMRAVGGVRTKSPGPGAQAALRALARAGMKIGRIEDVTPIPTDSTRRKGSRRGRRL
UniProt A4I3Y8: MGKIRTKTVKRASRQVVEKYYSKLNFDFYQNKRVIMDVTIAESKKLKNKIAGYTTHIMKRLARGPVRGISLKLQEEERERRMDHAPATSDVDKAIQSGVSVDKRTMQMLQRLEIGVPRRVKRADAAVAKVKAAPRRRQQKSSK
UniProt A4IA55: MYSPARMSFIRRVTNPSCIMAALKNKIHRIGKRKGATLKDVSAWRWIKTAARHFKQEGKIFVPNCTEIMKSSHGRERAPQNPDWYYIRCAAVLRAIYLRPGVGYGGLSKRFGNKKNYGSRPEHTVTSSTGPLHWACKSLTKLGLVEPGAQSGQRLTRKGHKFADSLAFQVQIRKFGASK
UniProt A4IDS4: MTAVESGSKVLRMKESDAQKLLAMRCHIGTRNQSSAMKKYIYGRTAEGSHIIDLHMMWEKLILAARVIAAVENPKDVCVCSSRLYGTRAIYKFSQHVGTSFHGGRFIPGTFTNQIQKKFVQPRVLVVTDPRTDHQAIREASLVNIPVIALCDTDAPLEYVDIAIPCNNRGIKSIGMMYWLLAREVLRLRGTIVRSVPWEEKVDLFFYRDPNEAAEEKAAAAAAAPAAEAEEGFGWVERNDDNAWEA
UniProt A4IB88: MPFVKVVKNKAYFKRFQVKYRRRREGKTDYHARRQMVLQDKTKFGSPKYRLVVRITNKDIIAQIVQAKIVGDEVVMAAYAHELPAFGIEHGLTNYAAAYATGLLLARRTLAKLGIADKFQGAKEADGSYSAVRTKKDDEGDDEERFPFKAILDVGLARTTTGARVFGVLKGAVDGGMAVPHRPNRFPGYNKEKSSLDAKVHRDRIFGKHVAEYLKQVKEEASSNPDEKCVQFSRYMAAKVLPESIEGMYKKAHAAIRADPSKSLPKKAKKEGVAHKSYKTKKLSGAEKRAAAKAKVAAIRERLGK
UniProt A4HT78: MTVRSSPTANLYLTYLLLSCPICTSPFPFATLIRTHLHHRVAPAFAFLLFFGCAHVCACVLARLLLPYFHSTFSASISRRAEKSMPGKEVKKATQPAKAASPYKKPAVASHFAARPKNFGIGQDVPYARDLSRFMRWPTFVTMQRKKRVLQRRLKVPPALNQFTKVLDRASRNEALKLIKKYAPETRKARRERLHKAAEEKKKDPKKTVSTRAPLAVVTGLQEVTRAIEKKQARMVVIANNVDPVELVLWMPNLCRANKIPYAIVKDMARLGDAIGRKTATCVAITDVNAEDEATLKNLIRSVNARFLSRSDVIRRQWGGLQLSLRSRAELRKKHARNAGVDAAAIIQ
UniProt A4I672: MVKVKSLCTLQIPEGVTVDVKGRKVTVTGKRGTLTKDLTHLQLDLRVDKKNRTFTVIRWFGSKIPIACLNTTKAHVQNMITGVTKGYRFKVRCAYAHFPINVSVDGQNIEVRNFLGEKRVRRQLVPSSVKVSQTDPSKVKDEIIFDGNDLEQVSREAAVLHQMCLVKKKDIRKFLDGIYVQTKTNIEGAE
UniProt A4HS42: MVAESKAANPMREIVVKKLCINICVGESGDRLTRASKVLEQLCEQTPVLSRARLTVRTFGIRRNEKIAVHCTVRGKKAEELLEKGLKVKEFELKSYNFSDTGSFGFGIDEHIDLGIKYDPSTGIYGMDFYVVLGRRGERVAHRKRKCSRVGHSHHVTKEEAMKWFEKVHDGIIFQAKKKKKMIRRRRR
UniProt A4I4W0: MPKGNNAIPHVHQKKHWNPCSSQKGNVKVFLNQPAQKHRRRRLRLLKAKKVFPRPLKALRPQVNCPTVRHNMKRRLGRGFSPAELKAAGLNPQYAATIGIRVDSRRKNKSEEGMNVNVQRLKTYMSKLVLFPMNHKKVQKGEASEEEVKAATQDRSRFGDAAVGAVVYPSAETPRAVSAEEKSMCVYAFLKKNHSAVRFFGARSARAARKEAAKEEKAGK
UniProt A4HSU9: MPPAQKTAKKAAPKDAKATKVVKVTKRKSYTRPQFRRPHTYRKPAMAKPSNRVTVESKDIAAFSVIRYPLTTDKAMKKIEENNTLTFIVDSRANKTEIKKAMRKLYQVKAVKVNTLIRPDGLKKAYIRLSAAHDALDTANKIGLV
UniProt A4I114: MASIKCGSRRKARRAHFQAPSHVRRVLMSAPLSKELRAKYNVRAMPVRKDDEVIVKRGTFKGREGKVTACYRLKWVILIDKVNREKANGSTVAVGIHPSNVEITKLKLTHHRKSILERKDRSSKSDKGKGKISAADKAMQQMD
UniProt A4HZ42: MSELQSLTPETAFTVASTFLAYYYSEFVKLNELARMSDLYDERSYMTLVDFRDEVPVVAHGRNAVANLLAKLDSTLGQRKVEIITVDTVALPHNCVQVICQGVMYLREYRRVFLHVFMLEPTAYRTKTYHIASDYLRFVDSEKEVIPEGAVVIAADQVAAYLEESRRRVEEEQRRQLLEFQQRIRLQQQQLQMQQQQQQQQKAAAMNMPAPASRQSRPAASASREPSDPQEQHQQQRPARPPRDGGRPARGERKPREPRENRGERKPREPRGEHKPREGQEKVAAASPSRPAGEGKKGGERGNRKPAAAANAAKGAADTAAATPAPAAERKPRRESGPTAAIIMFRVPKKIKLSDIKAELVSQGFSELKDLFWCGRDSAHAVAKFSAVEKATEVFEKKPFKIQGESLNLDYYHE
UniProt A4I7P2: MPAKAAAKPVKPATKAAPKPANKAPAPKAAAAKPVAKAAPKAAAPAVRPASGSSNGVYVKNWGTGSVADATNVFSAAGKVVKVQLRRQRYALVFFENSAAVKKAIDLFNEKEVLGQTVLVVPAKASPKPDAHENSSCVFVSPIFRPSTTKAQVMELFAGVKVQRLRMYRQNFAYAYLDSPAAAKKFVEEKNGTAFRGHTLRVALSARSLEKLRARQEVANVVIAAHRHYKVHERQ
UniProt E9AHW1: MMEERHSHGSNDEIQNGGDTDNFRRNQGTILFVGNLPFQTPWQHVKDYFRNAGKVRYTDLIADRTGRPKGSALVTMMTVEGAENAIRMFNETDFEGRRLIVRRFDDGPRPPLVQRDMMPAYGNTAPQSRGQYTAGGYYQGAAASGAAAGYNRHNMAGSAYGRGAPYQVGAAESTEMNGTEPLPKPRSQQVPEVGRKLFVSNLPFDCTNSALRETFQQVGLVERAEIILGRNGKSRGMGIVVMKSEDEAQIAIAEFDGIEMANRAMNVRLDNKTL
UniProt A4I2T3: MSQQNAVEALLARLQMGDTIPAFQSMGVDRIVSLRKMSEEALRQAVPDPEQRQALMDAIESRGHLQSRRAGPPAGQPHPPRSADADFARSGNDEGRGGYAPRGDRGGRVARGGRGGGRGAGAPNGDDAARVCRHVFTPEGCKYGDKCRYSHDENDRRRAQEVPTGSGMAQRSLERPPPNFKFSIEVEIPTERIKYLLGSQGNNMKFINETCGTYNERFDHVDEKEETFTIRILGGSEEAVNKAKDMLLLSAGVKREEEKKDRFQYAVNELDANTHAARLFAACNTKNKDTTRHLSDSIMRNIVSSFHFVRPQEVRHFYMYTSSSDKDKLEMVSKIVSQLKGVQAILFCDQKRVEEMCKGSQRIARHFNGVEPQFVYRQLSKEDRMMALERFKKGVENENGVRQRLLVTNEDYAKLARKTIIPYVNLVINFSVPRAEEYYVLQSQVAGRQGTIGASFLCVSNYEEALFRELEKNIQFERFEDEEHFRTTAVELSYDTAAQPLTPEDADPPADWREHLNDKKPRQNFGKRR
UniProt A4HSL8: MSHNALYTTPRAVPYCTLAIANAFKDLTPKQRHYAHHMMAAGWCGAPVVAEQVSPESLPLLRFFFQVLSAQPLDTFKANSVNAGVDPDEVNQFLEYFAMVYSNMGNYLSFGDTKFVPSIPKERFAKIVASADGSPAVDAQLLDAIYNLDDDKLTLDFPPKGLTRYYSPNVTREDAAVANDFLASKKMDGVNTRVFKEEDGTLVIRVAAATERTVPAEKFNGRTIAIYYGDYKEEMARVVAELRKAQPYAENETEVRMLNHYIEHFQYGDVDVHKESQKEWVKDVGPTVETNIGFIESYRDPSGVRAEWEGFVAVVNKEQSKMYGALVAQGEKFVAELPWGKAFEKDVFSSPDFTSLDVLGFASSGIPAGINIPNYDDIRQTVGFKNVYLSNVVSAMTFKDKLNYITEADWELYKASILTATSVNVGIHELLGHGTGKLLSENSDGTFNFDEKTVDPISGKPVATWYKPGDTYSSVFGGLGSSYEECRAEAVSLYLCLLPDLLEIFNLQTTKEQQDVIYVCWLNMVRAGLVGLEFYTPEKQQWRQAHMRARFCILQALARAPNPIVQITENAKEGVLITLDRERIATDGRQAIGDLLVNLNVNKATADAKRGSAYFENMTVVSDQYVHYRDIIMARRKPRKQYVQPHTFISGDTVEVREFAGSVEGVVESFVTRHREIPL
UniProt A4HY41: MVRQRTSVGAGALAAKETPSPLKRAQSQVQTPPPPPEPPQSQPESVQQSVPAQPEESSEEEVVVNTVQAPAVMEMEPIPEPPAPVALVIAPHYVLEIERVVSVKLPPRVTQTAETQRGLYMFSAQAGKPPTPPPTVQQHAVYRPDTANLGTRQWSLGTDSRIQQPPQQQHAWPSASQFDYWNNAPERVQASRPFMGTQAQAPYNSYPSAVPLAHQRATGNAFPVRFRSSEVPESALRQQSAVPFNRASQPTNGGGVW
UniProt Q9NJS2: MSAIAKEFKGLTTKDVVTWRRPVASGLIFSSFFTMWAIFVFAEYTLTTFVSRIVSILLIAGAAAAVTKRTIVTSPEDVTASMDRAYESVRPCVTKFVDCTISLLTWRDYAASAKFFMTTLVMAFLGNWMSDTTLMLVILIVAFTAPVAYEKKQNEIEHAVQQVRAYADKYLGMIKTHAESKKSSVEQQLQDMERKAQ
UniProt A4I4G7: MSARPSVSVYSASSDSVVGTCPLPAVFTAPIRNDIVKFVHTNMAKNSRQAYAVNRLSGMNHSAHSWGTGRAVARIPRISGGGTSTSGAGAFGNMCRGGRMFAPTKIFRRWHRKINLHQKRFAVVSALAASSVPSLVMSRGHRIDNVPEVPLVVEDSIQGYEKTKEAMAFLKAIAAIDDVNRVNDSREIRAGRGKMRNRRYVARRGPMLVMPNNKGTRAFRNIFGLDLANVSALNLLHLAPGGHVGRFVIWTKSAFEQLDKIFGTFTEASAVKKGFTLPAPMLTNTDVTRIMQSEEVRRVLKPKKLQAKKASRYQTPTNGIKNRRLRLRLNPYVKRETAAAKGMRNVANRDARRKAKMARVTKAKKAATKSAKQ

Results are given in words; binding and its absence hold for the method and conditions named. Binding seen in cells or lysates may run through a third protein. Here binding means that the protein was enriched with, or labelled near, the bait; the list need not be complete.

One assay addresses LiAlba1-HA (L. infantum) (UniProt A4HVG8). Nature of the assay: affinity purification with mass spectrometry; anti-HA antibody on Dynabeads Protein G; pre-cleared cytoplasmic extracts (10 mM Hepes, 3 mM MgCl2, 14 mM KCl, pH 7.5, 5% glycerol, 0.2% NP-40) of L. infantum promastigotes and axenic amastigotes expressing LiAlba1-HA or HA-LiAlba3; 90 min at 4°C; LC-MS/MS; only proteins absent from the wild type control.

In another assay the target is HA-LiAlba3 (L. infantum) (UniProt A4IA34). Described as above.

With “40S ribosomal protein L14, putative (from UniProt A4I011)”, the binding result in the assay with LiAlba1-HA (L. infantum) is recorded as “binds”. As to “40S ribosomal protein S3, putative (from UniProt A4HWJ3)”, the binding result with LiAlba1-HA (L. infantum) and in the assay with HA-LiAlba3 (L. infantum) was “binds” in each case. “40S ribosomal protein S3A, putative (from UniProt A4IAU0)”: the binding entry with LiAlba1-HA (L. infantum) and in the assay with HA-LiAlba3 (L. infantum) was “binds” throughout. As for “40S ribosomal protein S5 (from UniProt A0A381MCG8)”, in the assay with LiAlba1-HA (L. infantum), the binding entry is reported as “binds”. “40S ribosomal protein S6, putative (from UniProt A4HZI4)”: the binding entry in the assay with LiAlba1-HA (L. infantum) and with HA-LiAlba3 (L. infantum) was “binds” in each case. For “40S ribosomal protein S14 (from UniProt A4I3H3)”, the binding entry with LiAlba1-HA (L. infantum) and in the assay with HA-LiAlba3 (L. infantum) was “binds” in each case. Regarding “40S ribosomal protein S17, putative (from UniProt A4I3Y8)”, the binding entry in the assay with LiAlba1-HA (L. infantum) and in the assay with HA-LiAlba3 (L. infantum) was “binds” in each case.

With “40S ribosomal protein S19 protein, putative (from UniProt A4IA55)”, the binding result with LiAlba1-HA (L. infantum) and with HA-LiAlba3 (L. infantum) was “binds” throughout. For the substance “40S ribosomal protein S24e (from UniProt A4ID74)”, the binding entry with LiAlba1-HA (L. infantum) and with HA-LiAlba3 (L. infantum) was “binds” throughout. Take “40S ribosomal protein SA, putative (from UniProt A4IDS4)”: the binding result with LiAlba1-HA (L. infantum) and with HA-LiAlba3 (L. infantum) was “binds” in each case. Turning to “60S ribosomal protein L5, putative (from UniProt A4IB88)”, the binding entry in the assay with LiAlba1-HA (L. infantum) and with HA-LiAlba3 (L. infantum) was “binds” each time. Regarding “60S ribosomal protein L7a, putative (from UniProt A4HT78)”, the binding entry with LiAlba1-HA (L. infantum) and with HA-LiAlba3 (L. infantum) was “binds” throughout. “60S ribosomal protein L9, putative (from UniProt A4I672)”: the binding result with LiAlba1-HA (L. infantum) and with HA-LiAlba3 (L. infantum) was “binds” each time.

For “60S ribosomal protein L11 (L5, L16) (from UniProt A4HS42)”, the binding result with LiAlba1-HA (L. infantum) is on record as “binds”.

With “60S ribosomal protein L13, putative (from UniProt A4I4W0)”, the binding result with LiAlba1-HA (L. infantum) and with HA-LiAlba3 (L. infantum) was “binds” in each case. Consider “60S ribosomal protein L23a, putative (from UniProt A4HSU9)”, for which the binding entry in the assay with LiAlba1-HA (L. infantum) and with HA-LiAlba3 (L. infantum) was “binds” in each case. As for “60S ribosomal protein L26, putative (from UniProt A4I114)”, the binding result with HA-LiAlba3 (L. infantum) is listed as “binds”.

For the substance “DEAD-box ATP-dependent RNA helicase LinJ.32.0410 (from UniProt A4I7K4)”, the binding entry with LiAlba1-HA (L. infantum) and with HA-LiAlba3 (L. infantum) was “binds” throughout. On to “LiAlba3 (endogenous) (from UniProt A4IA34)”, for which the binding result with LiAlba1-HA (L. infantum) is given as “binds”.

Take “NTF2-like protein LinJ.21.0490 (from UniProt A4HZ42)”: the binding entry with LiAlba1-HA (L. infantum) and in the assay with HA-LiAlba3 (L. infantum) was “binds” each time.

With “RNA binding protein, putative (LinJ.32.0790) (from UniProt A4I7P2)”, the binding entry with LiAlba1-HA (L. infantum) and with HA-LiAlba3 (L. infantum) was “binds” in each case. On to “RNA-binding protein, putative | DRBD2 (from UniProt E9AHW1)”, for which the binding result in the assay with LiAlba1-HA (L. infantum) and in the assay with HA-LiAlba3 (L. infantum) was “binds” throughout. Turning to “ZC3H41 helicase homolog (LinJ.27.1220) (from UniProt A4I2T3)”, the binding result with LiAlba1-HA (L. infantum) and with HA-LiAlba3 (L. infantum) was “binds” each time. As to “dipeptidyl-peptidase III (LinJ.05.0960) (from UniProt A4HSL8)”, in the assay with HA-LiAlba3 (L. infantum), the binding entry was “binds”. For “homolog of Rap55 (LinJ.25.0550) (from UniProt A4I195)”, the binding entry with LiAlba1-HA (L. infantum) and with HA-LiAlba3 (L. infantum) was “binds” in each case.

With “putative vacuolar protein (LinJ.19.0020) (from UniProt A4HY41)”, the binding result in the assay with LiAlba1-HA (L. infantum) and in the assay with HA-LiAlba3 (L. infantum) was “binds” each time.

On to “reticulon domain protein, 22 potentially aggravating protein (from UniProt Q9NJS2)”, for which the binding result with LiAlba1-HA (L. infantum) was “binds”. Take “ribosomal protein L1a, putative (from UniProt A4I4G7)”: the binding result with LiAlba1-HA (L. infantum) and with HA-LiAlba3 (L. infantum) was “binds” throughout. Regarding “ribosomal protein S7, putative (from UniProt A4HRG4)”, the binding entry with LiAlba1-HA (L. infantum) and in the assay with HA-LiAlba3 (L. infantum) was “binds” throughout. In the case of “second NTF-2 like protein specific of trypanosomatids (LinJ.18.0300) (from UniProt A4HXQ6)”, the binding result with LiAlba1-HA (L. infantum) and in the assay with HA-LiAlba3 (L. infantum) was “binds” in each case.
